Results reported in article PMC7672075.
These are yes or no findings as the source states them, for the method shown. In cells and extracts the contact can be indirect. Some entries that bind do so weakly or less than the wild type. For part of these data: Where a sequence is shown, tags or fusion partners need not be part of it.

Protein sequences, listed by entry. Tags and fused reporters are not part of them.
UniProt Q15554: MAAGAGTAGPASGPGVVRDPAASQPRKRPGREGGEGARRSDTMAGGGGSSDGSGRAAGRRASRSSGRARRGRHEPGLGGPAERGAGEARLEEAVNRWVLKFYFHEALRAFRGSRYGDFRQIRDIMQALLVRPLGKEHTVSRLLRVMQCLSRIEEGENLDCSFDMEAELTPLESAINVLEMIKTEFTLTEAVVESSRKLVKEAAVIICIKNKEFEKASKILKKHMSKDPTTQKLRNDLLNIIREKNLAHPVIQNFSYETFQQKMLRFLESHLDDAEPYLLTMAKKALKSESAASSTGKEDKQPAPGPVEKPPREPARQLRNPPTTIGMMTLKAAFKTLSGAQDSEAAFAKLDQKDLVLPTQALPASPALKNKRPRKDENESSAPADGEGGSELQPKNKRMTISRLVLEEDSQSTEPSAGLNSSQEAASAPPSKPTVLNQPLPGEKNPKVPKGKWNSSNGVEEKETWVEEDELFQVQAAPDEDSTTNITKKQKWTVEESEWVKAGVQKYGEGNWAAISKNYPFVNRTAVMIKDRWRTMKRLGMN
UniProt P54274: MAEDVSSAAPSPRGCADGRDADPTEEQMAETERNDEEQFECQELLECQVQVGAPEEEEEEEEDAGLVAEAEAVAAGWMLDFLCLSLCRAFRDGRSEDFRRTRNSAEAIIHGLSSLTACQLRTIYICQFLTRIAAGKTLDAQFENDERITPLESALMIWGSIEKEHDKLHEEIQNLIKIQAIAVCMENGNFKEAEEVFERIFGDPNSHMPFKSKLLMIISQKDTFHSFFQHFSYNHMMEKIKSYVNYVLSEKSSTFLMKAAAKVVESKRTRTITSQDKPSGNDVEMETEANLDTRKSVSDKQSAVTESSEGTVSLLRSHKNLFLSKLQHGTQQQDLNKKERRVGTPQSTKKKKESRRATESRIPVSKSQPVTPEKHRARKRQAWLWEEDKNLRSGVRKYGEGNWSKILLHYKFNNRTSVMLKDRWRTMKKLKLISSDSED
UniProt O35144: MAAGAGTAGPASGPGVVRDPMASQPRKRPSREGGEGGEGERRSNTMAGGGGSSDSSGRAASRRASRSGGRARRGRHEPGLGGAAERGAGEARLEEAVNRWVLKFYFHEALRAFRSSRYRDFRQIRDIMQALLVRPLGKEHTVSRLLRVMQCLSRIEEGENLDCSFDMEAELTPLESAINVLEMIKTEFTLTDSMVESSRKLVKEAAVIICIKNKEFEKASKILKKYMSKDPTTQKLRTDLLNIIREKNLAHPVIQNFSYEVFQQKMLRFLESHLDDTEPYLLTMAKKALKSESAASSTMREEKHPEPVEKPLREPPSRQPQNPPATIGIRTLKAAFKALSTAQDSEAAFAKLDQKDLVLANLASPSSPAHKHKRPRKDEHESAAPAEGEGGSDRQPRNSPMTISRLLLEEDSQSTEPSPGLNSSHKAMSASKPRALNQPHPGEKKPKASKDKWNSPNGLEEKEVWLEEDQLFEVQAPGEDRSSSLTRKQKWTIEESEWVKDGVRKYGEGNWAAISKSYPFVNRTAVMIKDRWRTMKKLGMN

How the values were obtained:
[1] = molecular target: TRF2, endogenous (U2OS) (human (endogenous in U2OS)) (UniProt Q15554); experiment: co-IP; endogenous proteins; lysates of U2OS cells synchronized by double thymidine block and harvested at 3 h time points; anti-TRF2 antibody overnight, protein G and protein A sepharose beads 4 h at 4 °C
FLAG-hTRF1 (human) = FLAG-hTRF1 (human) (UniProt P54274); experiment: co-IP; 293T cells co-transfected with MCPH1 and FLAG-hTRF1; BC300 buffer; beads for this pair not told
FLAG-mTRF2 (mouse) = FLAG-mTRF2 (mouse) (UniProt O35144); experiment: co-IP; Myc-mMCPH1 and FLAG-mTRF2; cells and beads not told

B1: MCPH1, endogenous (U2OS) (protein, UniProt Q8NEM0 1-835)
chain: MAAPILKDVVAYVEVWSSNGTENYSKTFTTQLVDMGAKVSKTFNKQVTHVIFKDGYQSTWDKAQKRGVKLVSVLWVEKCRTAGAHIDESLFPAANMNEHLSSLIKKKRKCMQPKDFNFKTPENDKRFQKKFEKMAKELQRQKTNLDDDVPILLFESNGSLIYTPTIEINSRHHSAMEKRLQEMKEKRENLSPTSSQMIQQSHDNPSNSLCEAPLNISRDTLCSDEYFAGGLHSSFDDLCGNSGCGNQERKLEGSINDIKSDVCISSLVLKANNIHSSPSFTHLDKSSPQKFLSNLSKEEINLQRNIAGKVVTPDQKQAAGMSQETFEEKYRLSPTLSSTKGHLLIHSRPRSSSVKRKRVSHGSHSPPKEKCKRKRSTRRSIMPRLQLCRSEDRLQHVAGPALEALSCGESSYDDYFSPDNLKERYSENLPPESQLPSSPAQLSCRSLSKKERTSIFEMSDFSCVGKKTRTVDITNFTAKTISSPRKTGNGEGRATSSCVTSAPEEALRCCRQAGKEDACPEGNGFSYTIEDPALPKGHDDDLTPLEGSLEEMKEAVGLKSTQNKGTTSKISNSSEGEAQSEHEPCFIVDCNMETSTEEKENLPGGYSGSVKNRPTRHDVLDDSCDGFKDLIKPHEELKKSGRGKKPTRTLVMTSMPSEKQNVVIQVVDKLKGFSIAPDVCETTTHVLSGKPLRTLNVLLGIARGCWVLSYDWVLWSLELGHWISEEPFELSHHFPAAPLCRSECHLSAGPYRGTLFADQPAMFVSPASSPPVAKLCELVHLCGGRVSQVPRQASIVIGPYSGKKKATVKYLSEKWVLDSITQHKVCAPENYLLSQ
- binding [1]: binds

B2: MCPH1 (human), as co-expressed with FLAG-hTRF1 (protein, UniProt Q8NEM0 1-835)
chain: MAAPILKDVVAYVEVWSSNGTENYSKTFTTQLVDMGAKVSKTFNKQVTHVIFKDGYQSTWDKAQKRGVKLVSVLWVEKCRTAGAHIDESLFPAANMNEHLSSLIKKKRKCMQPKDFNFKTPENDKRFQKKFEKMAKELQRQKTNLDDDVPILLFESNGSLIYTPTIEINSRHHSAMEKRLQEMKEKRENLSPTSSQMIQQSHDNPSNSLCEAPLNISRDTLCSDEYFAGGLHSSFDDLCGNSGCGNQERKLEGSINDIKSDVCISSLVLKANNIHSSPSFTHLDKSSPQKFLSNLSKEEINLQRNIAGKVVTPDQKQAAGMSQETFEEKYRLSPTLSSTKGHLLIHSRPRSSSVKRKRVSHGSHSPPKEKCKRKRSTRRSIMPRLQLCRSEDRLQHVAGPALEALSCGESSYDDYFSPDNLKERYSENLPPESQLPSSPAQLSCRSLSKKERTSIFEMSDFSCVGKKTRTVDITNFTAKTISSPRKTGNGEGRATSSCVTSAPEEALRCCRQAGKEDACPEGNGFSYTIEDPALPKGHDDDLTPLEGSLEEMKEAVGLKSTQNKGTTSKISNSSEGEAQSEHEPCFIVDCNMETSTEEKENLPGGYSGSVKNRPTRHDVLDDSCDGFKDLIKPHEELKKSGRGKKPTRTLVMTSMPSEKQNVVIQVVDKLKGFSIAPDVCETTTHVLSGKPLRTLNVLLGIARGCWVLSYDWVLWSLELGHWISEEPFELSHHFPAAPLCRSECHLSAGPYRGTLFADQPAMFVSPASSPPVAKLCELVHLCGGRVSQVPRQASIVIGPYSGKKKATVKYLSEKWVLDSITQHKVCAPENYLLSQ
- binding (FLAG-hTRF1 (human)): no binding

B3: Myc-mMCPH1 (protein, UniProt Q7TT79 1-822)
chain: MEASGGVGGAFLKDVVAYVEVWSSKGTENYSRTFAKQLEDMGATVSKTLNKQVTHVIFKDGYQSTWDKAQKTGAKLVSVLWVEKCRMAGALVDESLFPAVNTDEHLPNLSRKKHKCMQPKDFILKTPENDKRLQKKFEKMAEELQRQKAALDDDVPVLLFESPRSLVYSSPVNVMKRRLQDMKEKRENLSPTSSQMLEQSQQNPCVSLFETSLNISHQPLSSDESFASGSHSSFGDSCGDQERKLGRSANEMTTVTCPSSPVLRASSFYGSASPNHLRQPRPQKAPDSPSKESINCQKDATGAVADSERKQAAGVSQGVPDEKLCLSPTMSIIEEHQVRLGPKNSSAKRKRAADLGSSPKGKLKKRYKRKSALAIQLFKSDQSPPSTIRLIPGTPDVEASSYEDYFSPDNLKERNSERLPPEAQQLASPSLFHCRGLSKWERRNMLEMCDFTCIGEKHRSISSISDLISKSASSLEKPVKEEVNTASTCLLLVETSANDSPGLCSQPGPQLRDDTGPEGSSHPDTLSSSAHHITPLKGNSTETRDPGDGKGSPKEGSTPPASASPEDEVHICNLSLGEDCNVEKSVEEKENIATGYSESVKNGPGRPDPSDSSCTGLVRPQQKPKKSEKEEKPTRTLVMTSMPSEKQTLIIQVVSTLKGFSFAPEVCETTTHVLVGKSARTLNVLMGIARGCWILSYEWVLLSLELGHWISEEPFELSETFPAAPICRLERHLSTQQYQGTLFANQPKMFIAPASSPPRAKLCELVLLCGGQVSPAPQLASLIIGPYKGKKKARIQYLSEKWVLDSITQHKICDFNNYQLLQ
- binding (FLAG-mTRF2 (mouse)): no binding
